Results are given in words; binding and its absence hold for the method and conditions named. Some binding calls cover weakened binding; strength is not graded here.

Amino acid sequences for entries named in this document (tags omitted). A change or cut given only in a name is not applied to a line headed by its entry. Chains listed by the source or under a name are the forms on record and can include a tag or linker.
UniProt Q9P286: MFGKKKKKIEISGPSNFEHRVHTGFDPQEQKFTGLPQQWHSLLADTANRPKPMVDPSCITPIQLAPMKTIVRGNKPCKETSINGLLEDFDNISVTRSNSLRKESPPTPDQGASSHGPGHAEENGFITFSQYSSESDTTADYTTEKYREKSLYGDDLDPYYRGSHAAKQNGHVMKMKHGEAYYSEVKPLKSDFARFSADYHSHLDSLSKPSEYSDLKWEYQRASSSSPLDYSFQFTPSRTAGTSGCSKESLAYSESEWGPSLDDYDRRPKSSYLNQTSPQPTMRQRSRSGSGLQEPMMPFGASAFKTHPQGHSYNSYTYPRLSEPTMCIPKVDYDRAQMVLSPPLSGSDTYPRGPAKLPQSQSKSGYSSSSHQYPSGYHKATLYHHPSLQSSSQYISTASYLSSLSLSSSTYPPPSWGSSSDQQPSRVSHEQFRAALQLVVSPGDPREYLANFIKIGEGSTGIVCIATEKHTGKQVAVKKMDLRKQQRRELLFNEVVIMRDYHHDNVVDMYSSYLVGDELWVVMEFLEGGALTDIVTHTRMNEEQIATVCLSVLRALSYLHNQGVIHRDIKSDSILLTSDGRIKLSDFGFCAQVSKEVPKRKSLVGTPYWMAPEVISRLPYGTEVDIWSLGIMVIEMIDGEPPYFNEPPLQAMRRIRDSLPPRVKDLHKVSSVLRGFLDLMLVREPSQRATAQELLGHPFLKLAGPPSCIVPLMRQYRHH
UniProt O96013: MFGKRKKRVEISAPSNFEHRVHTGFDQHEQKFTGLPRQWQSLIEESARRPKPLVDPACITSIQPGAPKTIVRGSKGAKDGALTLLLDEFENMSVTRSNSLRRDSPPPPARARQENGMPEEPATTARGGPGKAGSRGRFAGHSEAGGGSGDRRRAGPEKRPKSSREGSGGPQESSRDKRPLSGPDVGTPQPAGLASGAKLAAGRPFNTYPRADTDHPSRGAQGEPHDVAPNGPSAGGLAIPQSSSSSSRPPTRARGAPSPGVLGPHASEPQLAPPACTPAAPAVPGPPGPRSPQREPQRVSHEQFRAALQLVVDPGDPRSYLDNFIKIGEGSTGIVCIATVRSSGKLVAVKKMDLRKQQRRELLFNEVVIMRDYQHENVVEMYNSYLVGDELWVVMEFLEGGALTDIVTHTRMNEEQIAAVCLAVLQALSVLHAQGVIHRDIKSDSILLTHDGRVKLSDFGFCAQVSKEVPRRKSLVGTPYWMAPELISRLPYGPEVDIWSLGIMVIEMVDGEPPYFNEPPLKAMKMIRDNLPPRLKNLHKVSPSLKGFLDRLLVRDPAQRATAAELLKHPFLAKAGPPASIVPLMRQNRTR
PAK4-GFP Ser181Ala (O96013, form named): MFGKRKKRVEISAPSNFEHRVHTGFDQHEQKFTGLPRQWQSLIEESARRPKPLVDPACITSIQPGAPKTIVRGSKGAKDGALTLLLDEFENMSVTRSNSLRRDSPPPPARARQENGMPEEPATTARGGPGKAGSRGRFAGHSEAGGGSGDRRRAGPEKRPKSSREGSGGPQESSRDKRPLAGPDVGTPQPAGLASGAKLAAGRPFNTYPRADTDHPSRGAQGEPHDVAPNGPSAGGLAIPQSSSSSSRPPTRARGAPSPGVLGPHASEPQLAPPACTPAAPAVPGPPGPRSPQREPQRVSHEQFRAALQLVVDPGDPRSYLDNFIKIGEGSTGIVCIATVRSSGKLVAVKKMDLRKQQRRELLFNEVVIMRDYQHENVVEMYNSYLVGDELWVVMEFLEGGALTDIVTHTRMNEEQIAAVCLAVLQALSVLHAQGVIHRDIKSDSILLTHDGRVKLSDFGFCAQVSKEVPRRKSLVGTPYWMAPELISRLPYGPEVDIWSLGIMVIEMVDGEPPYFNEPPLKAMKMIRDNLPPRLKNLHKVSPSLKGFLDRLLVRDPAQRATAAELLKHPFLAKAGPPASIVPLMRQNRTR
PAK4-GFP Ser99Ala (O96013, form named): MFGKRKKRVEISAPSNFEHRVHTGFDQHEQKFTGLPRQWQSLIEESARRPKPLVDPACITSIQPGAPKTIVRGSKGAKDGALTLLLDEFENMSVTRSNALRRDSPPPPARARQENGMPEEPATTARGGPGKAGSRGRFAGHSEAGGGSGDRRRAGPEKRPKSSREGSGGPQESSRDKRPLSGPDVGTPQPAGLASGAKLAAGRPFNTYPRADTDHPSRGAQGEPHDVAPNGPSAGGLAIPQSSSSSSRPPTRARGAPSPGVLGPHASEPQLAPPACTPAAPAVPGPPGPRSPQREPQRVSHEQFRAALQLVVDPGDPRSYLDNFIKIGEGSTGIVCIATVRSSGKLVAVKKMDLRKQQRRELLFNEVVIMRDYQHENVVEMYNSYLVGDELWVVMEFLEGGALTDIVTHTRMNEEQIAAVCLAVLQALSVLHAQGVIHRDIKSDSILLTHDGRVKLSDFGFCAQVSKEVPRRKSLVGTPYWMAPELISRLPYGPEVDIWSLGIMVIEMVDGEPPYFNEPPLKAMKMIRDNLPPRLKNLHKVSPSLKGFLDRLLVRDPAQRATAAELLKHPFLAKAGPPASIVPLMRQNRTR
UniProt P29311: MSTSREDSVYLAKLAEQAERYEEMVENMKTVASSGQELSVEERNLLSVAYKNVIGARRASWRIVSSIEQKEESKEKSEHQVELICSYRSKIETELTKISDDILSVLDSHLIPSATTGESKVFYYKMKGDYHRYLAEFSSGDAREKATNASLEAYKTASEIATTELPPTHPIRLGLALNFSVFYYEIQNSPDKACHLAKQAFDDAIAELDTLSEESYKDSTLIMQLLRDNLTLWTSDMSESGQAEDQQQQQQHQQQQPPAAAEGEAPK

From PMC3914767 come the findings set out here.

The target of experiment [1] is PAK7-GFP (human) (UniProt Q9P286). Nature of the experiment: condition: only PAK-GFP on the beads dephosphorylated with lambda phosphatase; far-Western, overlay or dot blot; GFP-tagged proteins on GFP-Trap beads dephosphorylated with 3 ug lambda phosphatase, 2 mM MnCl2, 30 min 30°C (control: plus 10 mM EDTA), then overlay with digoxygenin-labelled 14-3-3; both purified.

Experiment [2] concerns the target PAK4-GFP Ser181Ala (human) (UniProt O96013). Nature of the experiment: far-Western, overlay or dot blot; PAK-GFP proteins isolated with GFP-Trap from lysates of transfected HEK293 cells (in 10% serum, or serum-starved 10 h and stimulated with PMA 100 nM 30 min), blotted and probed with digoxygenin-labelled 14-3-3 (mix of yeast BMH1 and BMH2) in place of a primary antibody; both purified.

In experiment [3] the target is PAK4-GFP Ser99Ala (human) (UniProt O96013). Described as above.
The target of experiment [4] is PAK7-GFP (human) (UniProt Q9P286). The description is as above.

For the substance “digoxygenin-labelled 14-3-3 (a mix of the Saccharomyces cerevisiae BMH1 and BMH2 14-3-3 isoforms) (from UniProt P29311 1-267; P34730 1-273)”, the binding result is on record as “no binding” in experiment [1], “binds” in experiment [2], “binds” in experiment [3] and “binds” in experiment [4].
